Source: article doi:10.1101/388868
Results are given in words; binding and its absence hold for the method and conditions named.

How the values were obtained:
[1] = biological target: C. elegans UNC-10 residues 62-121 WT (C. elegans) (UniProt Q22366); assay: SEC
[2] = biological target: C. elegans UNC-10 62-121 K77/79E mutant (C. elegans) (UniProt Q22366); assay: SEC

binding [1]	binding [2]	Binder
no binding	–	C. elegans UNC-10 residues 62-121 WT (domain or fragment, UniProt Q22366 62-121) KLVGTQDDAICQICQKTKFADGIGHKCFYCQLRSCARCGGRAQSKNKAIWACSLCQKRQQ
–	no binding	C. elegans UNC-10 62-121 K77/79E mutant (domain or fragment, UniProt Q22366 62-121) KLVGTQDDAICQICQETEFADGIGHKCFYCQLRSCARCGGRAQSKNKAIWACSLCQKRQQ
